Source: patent publication US20220396792
The exact form of at least one protein or probe is not confirmed.

System: VEGF165
Experiment: SPR
Details: 25 C, purified recombinant protein, protein details: PeproTech 100-20, single-stranded DNA

Sequence | Kd (SB1T pH 7.5, 1 mM MgCl2, no Ca) | Kd (SB1T pH 7.4, 1 mM MgCl2, 0.01% Tween 20)
CCGTAAACAGTTCTGGTTCCTTAGTTTAAAGTCACGTCTTAGTTTAAGGAAAAAAAAAAAAAAAAAAAA [Aptamer 3 VEGF746CaP_5s49 with 3' poly(dA)20] | 0.107 nM | 
CCTTAGTTTAAAGTCACGTCTTAGTTTAAGGAAAAAAAAAAAAAAAAAAAA [Aptamer 2 VEGF746CaP_5s31 with 3' poly(dA)20] |  | 0.0907 nM
